PubChem BioAssay AID1053209, Peter MacCallum Cancer Centre | 2014
In all, the deposit lists about 1,580 reagents; this is a random part of them. 207 of all reagents (13%) count as active. 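Rows are single siRNAs; four siRNAs per gene were tested, a gene counting as confirmed only when at least two agree.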 Further read-outs or replicates are left out here.

- Test: 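Knock-downs that sensitise mouse osteosarcoma cells to doxorubicin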 (follow-up of hits)
- Cells: mouse primary osteosarcoma cells
- Reagent: single siRNA against mouse genes, 25 nM (text also states 40 nM)
- Timing: about 120 h (48 h before drug, then 72 h with drug)
- Treatment: doxorubicin 100 nM (about IC30-40), added 48 h after transfection, for 72 h
- Read-out: 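ATP-based luminescent viability, with or without doxorubicin, relative to non-targeting control NT1, mean of two replicates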
- Direction: viability with doxorubicin, vs NT1: higher = more viable cells under doxorubicin; viability without drug, vs NT1: higher = more viable cells without drug
- Rule for the call: 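Counted as active (class LC dox) if viability falls to 0.7 of NT1 or below under doxorubicin but stays within 0.7 to 1.1 without drug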

no.	Gene	PubChem SID	combined effect class	viability with doxorubicin, vs NT1	viability without drug, vs NT1	call
1	Nup88 (GeneID 19069)	SID152276423	low viability only with doxorubicin; normal without drug	0.65	0.72	active
2	Nup88 (GeneID 19069)	SID152313657	low viability with and without drug	0.53	0.49	inactive
3	Nup88 (GeneID 19069)	SID152322731	low viability with and without drug	0.55	0.49	inactive
4	Nup88 (GeneID 19069)	SID152334842	low viability with and without drug	0.41	0.58	inactive
5	Eef1a1 (GeneID 13627)	SID152259060	normal viability with and without drug	0.85	0.98	inactive
6	Eef1a1 (GeneID 13627)	SID152260942	low viability only with doxorubicin; normal without drug	0.62	0.82	active
7	Eef1a1 (GeneID 13627)	SID152301226	low viability only with doxorubicin; normal without drug	0.62	0.72	active
8	Eef1a1 (GeneID 13627)	SID152303715	low viability with and without drug	0.43	0.48	inactive
9	Mfap5 (GeneID 50530)	SID152267025	normal viability with and without drug	0.98	1.04	inactive
10	Mfap5 (GeneID 50530)	SID152282991	normal viability with and without drug	0.88	0.96	inactive
11	Mfap5 (GeneID 50530)	SID152293148	normal viability with and without drug	0.9	0.96	inactive
12	Mfap5 (GeneID 50530)	SID152325572	normal viability with and without drug	1.05	1.01	inactive
13	Ncbp2 (GeneID 68092)	SID152280799	normal viability with and without drug	0.71	0.9	inactive
14	Ncbp2 (GeneID 68092)	SID152300685	normal viability with and without drug	0.94	0.92	inactive
15	Ncbp2 (GeneID 68092)	SID152336833	normal viability with and without drug	0.92	1.04	inactive
16	Ncbp2 (GeneID 68092)	SID152339757	normal viability with and without drug	0.74	0.91	inactive
17	Rgs20 (GeneID 58175)	SID152263502	normal viability with and without drug	0.98	1.03	inactive
18	Rgs20 (GeneID 58175)	SID152270738	low viability only with doxorubicin; normal without drug	0.58	0.71	active
19	Rgs20 (GeneID 58175)	SID152295142	normal viability with and without drug	0.96	0.92	inactive
20	Rgs20 (GeneID 58175)	SID152331174	normal viability with and without drug	0.91	1.05	inactive
21	Prkaa1 (GeneID 105787)	SID152261568	normal viability with and without drug	0.86	0.87	inactive
22	Prkaa1 (GeneID 105787)	SID152317417	normal viability with and without drug	1.05	1.08	inactive
23	Prkaa1 (GeneID 105787)	SID152330052	normal viability with and without drug	0.96	1.04	inactive
24	Prkaa1 (GeneID 105787)	SID152335674	normal viability with and without drug	0.98	1.05	inactive

A stretch taken from the entries so far, as a working copy:
no.	Gene	PubChem SID	combined effect class	viability with doxorubicin, vs NT1	viability without drug, vs NT1	call
13	Ncbp2 (GeneID 68092)	SID152280799	normal viability with and without drug	0.71	0.9	inactive
14	Ncbp2 (GeneID 68092)	SID152300685	normal viability with and without drug	0.94	0.92	inactive
